Laboratory results reported in PubChem BioAssay AID540256 (National Center for Advancing Translational Sciences (NCATS), 2011).
About 3,700 (1.2%) of roughly 300,000 compounds were called active. Inconclusive results, whose numbers are uncertain, are shown with a selection of clear calls. The call rests on the fitted dose curve; tested in HEK293 cells. Where the call is inconclusive, the potency comes from a doubtful curve fit.
On the % scale 0 is the no-effect control and ±100 the full control effect; potency means the concentration at half of the fitted maximal effect.

Assay: qHTS for Inhibitors of binding or entry into cells for Lassa Virus; further: nearly all actives have a fitted effect of over 50% in size
Details: Lassa virus pseudotype entry inhibition, cell reporter; activity change, negative = inhibition: at 37.9 µM (top of the series) unless noted
In the case of CC(=O)c1ccc(NC(=O)Nc2ncn(Cc3cccc(C)c3)n2)cc1, the Potency is reported as active: 0.651 µM.
With CN(C)S(=O)(=O)c1cccc(-c2nn(-c3ccccc3)cc2/C=C2\SC(=S)NC2=O)c1 the Potency was inconclusive: 14.1 µM [inhibitor, partial curve, poor fit].
With NS(=O)(=O)c1cccc(NC(=O)c2cccc(Oc3ccccc3)c2)c1 the Potency was inconclusive: 11.2 µM [inhibitor, partial curve, poor fit].
With Clc1ccc(-c2cn(-c3ccccc3)c3[n+]2CCS3)cc1 the Potency was inconclusive: 35.5 µM [inhibitor, single point].
For COc1ccc(Cl)cc1NC(=O)Nn1cnnc1, the Potency was inconclusive: 29.1 µM [activator, single point].
For NC(=O)c1ccccc1NC(=O)COc1ccc2c(c1)OCO2, the Potency was inconclusive: 8.91 µM [inhibitor, partial curve, poor fit].
In the case of O=C(Nc1cccc(S(=O)(=O)N2CCCCC2)c1)c1cnccn1, the Potency is reported as inconclusive: 25.1 µM [inhibitor, single point].
For CCc1ccc(N2CC(C(=O)NC3CCCCC3C)CC2=O)cc1 (centres undefined), the “activity change, negative = inhibition” value was inactive: -10.9%.
With CCOc1ccccc1N1CCN(C(=O)c2cc3c(C)cc(C)cc3[nH]2)CC1 the Potency was inconclusive: 14.1 µM [inhibitor, single point].
For O=C1c2oc3ccc(Cl)cc3c(=O)c2C(c2cccc(Br)c2)N1CCO (centres undefined), the “activity change, negative = inhibition” value was inactive: 1.2%.
In the case of CCN(CC)C(=O)c1ccc(COc2ccccc2Cl)cc1, the Potency is reported as inconclusive: 0.355 µM [inhibitor, partial curve, poor fit].
With CCCOc1ccc(CCc2n[nH]c(=S)n2-c2ccccc2)cc1 the Potency was inconclusive: 14.1 µM [inhibitor, partial curve, poor fit].
With CCc1ccc(NC(=O)CN(Cc2ccccc2)S(=O)(=O)c2ccc3nc(C)sc3c2)cc1 the “activity change, negative = inhibition” value was inactive: 6.07% [at 46.1 µM].
For NC(=O)SCC(=O)Nc1ccc(Cl)c(Cl)c1, the Potency was inconclusive: 20 µM [inhibitor, single point].
For Cc1ccc2c(c1)c(C)cc(=O)n2CCC(=O)O, the Potency was inconclusive: 1.83 µM [inhibitor, partial curve, poor fit].
In the case of COc1ccccc1OC(=O)c1cc2ccccc2oc1=O, the Potency is reported as inconclusive: 35.5 µM [activator, single point].
For CCn1c2ccccc2c2cc(NC(=O)COC(=O)c3ccc(O)cc3)ccc21, the Potency was inconclusive: 35.5 µM [inhibitor, single point].
In the case of O=C(/C=C/c1ccc2c(c1)OCO2)NCc1ccco1, the Potency is reported as active: 10 µM.
In the case of COc1cc(C2CC(c3cccs3)=NN2C(=O)CCl)ccc1OC(F)F (centres undefined), the Potency is reported as inconclusive: 8.91 µM [inhibitor, partial curve, poor fit].
